Test results published in PubChem BioAssay AID485314 (National Center for Advancing Translational Sciences (NCATS), 2010).
The whole screen tested about 340,000 compounds, of which about 4,500 (1.3%) were called active. The inconclusive results got no clear call from the source; some entries with a clear call stand among them for comparison. Calls follow the shape of the dose curve; as a rule, active = well fitted inhibition curve with a large enough effect; inconclusive = small, poorly fitted or top-dose-only effect, or another doubt; inactive = no such curve, though single readings can be large or run the other way. Where the call is inconclusive, the potency comes from a doubtful curve fit.

These compounds were tested against DNA polymerase beta (Homo sapiens) (UniProt P06746) (assay: qHTS Assay for Inhibitors of DNA Polymerase Beta). Details: Pol beta primer extension/strand displacement, fluorescence kinetic; activity change, negative = inhibition: at 114 µM (top of the series).
Procedure, shortened: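 Pol beta (10 nM) was preincubated with compound for 15 min at room temperature. The reaction was then started with 50 nM substrate and read immediately and after a further 10 min at room temperature.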
% is scaled to controls: 0 for no effect and ±100 for the full control effect; potency is read from the fitted curve at half-maximal effect.

Potency, active:
O=C(O)c1ccccc1N/C=C\[N+](=O)[O-] 25.1 µM
COc1ccc(OCC(=O)Nc2nc3ccc(NC(C)=O)cc3s2)cc1 22.4 µM

Potency, inconclusive:
CCN(CC)CCNC(=O)c1ccc(NC(=O)/C=C/c2cc(OC)c(OC)c(OC)c2)cc1 39.8 µM [inhibitor, partial curve]
CC(=O)Nc1cccc(-c2nc(-c3ccccc3)no2)c1 79.4 µM [inhibitor, single point]
Oc1ccc(N=Nc2nccs2)c(O)c1 89.1 µM [inhibitor, single point]
CCc1ccc(Nc2nnc(SCc3cc(=O)n4ccsc4n3)s2)cc1 39.8 µM [inhibitor, partial curve]
Cc1cc(N)n(Cc2ccc(Cl)cc2)n1 14.1 µM [inhibitor, partial curve]
CCCCN(CC)C(=O)CSc1nc2n[nH]c(C)c2c(=N)n1-c1ccc(CC)cc1 79.4 µM [inhibitor, single point]
COc1ccc(NC(=O)CSc2ncc3c(n2)-c2ccccc2N(Cc2ccc(C)cc2)S3(=O)=O)cc1Cl 89.1 µM [inhibitor, single point]
CC(C)(C)c1ccccc1NC(=S)NCc1ccccc1 31.6 µM [inhibitor, single point]
CSc1nc2nccc(-c3ccc(-c4ccccc4)cc3)n2n1 31.6 µM [inhibitor, partial curve]
COc1cc(N=Nc2c(O)c3ccccc3[nH]c2=O)c(OC)cc1N=Nc1ccccc1 25.1 µM [inhibitor, full curve, poor fit]
CCOc1ccc(-n2c(C)cc(/C=C3/C(=N)N4C(=NC3=O)SN=C4S(C)(=O)=O)c2C)cc1 35.5 µM [inhibitor, partial curve]
Cc1ccccc1NC(=S)NNC(=O)c1cccnc1 25.1 µM [inhibitor, single point]
CC1CN(C(=O)c2cc3cc(Br)ccc3[nH]2)CC(C)O1 (stereo not drawn) 31.6 µM [inhibitor, full curve, poor fit]
COc1ccc(S(=O)(=O)N2CCOCC2)cc1C(=O)N1CCCCCC1 0.501 µM [inhibitor, full curve, poor fit]

Reprinted at random: two records from the list, in no set order.
Potency, inconclusive:
CC(C)(C)c1ccccc1NC(=S)NCc1ccccc1 31.6 µM [inhibitor, single point]
COc1ccc(NC(=O)CSc2ncc3c(n2)-c2ccccc2N(Cc2ccc(C)cc2)S3(=O)=O)cc1Cl 89.1 µM [inhibitor, single point]

Next part:

Activity change, negative = inhibition, inconclusive:
CCN(CC)CCNC(=O)c1ccc(NC(=O)c2cn(-c3ccc(F)cc3)nc2-c2cccc(OC)c2)cc1 -56.1% [inhibitor]

Activity change, negative = inhibition, inactive:
O=C(CCC1N=C2c3ccccc3N=C(SCC(=O)Nc3cccc(Cl)c3)N2C1=O)NCc1ccco1 (stereo not drawn) 29%
